Some of the results follow.
target: T1, OsSMF1 (Oryza sativa, UniProt Q6ZLB0 1-436); assay: protein-binding microarray (RPBM); PBS, 2% BSA, 51.3 ng/ul salmon testes DNA, 50 uM zinc acetate, 200 nM TF, 25 C, 1 h; high values mean tight binding; settings: protein: recombinant; tags: N-terminal polyhistidine and DsRed monomer fusion (pET32a); chain copies: 2; label: CyDye5-dUTP incorporated in the synthesized complementary strand; 3' TTTTT single-stranded linker to array surface; dsDNA, one strand shown
T1 sequence: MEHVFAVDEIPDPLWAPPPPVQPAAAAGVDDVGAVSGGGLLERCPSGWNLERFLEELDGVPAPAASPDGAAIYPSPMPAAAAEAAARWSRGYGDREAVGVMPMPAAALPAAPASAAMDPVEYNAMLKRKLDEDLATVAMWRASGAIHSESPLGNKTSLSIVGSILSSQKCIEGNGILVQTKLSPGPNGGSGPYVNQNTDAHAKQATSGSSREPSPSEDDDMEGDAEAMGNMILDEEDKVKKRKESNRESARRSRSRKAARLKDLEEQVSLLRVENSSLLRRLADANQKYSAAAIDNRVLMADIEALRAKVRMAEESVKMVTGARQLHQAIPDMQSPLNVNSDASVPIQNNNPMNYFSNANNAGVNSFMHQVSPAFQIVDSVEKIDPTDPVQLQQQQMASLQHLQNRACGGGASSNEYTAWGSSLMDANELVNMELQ
In short: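 For the binding signal, per-feature fluorescence intensity was read in arbitrary units on an Axon 4000B scanner. Before scanning, a 2% BSA-blocked custom Agilent array made double-stranded with Cy5-dUTP was washed after 1 h at 25 °C with 200 nM protein and 50 µM zinc acetate. The proteins were Ni–NTA-purified transcription factors with N-terminal polyhistidine and DsRed fusions, expressed in E. coli BL21-CodonPlus.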

| Sequence | binding signal |
| --- | --- |
| AACCAGCGAACCAATTATAGGCAACCTCATTTCCTTGTTGCGGAGTCACCTAGTGCAG | 3520 fluorescence intensity (a.u.) |
| TGGATCTCATTTCAGGCCCATCCAACTTGAAAGCTACTAGCGGAGTCACCTAGTGCAG | 29700 fluorescence intensity (a.u.) |
| TATCATATGTATCAAGAAACACCTCATCATTTTCCATCGCCGGAGTCACCTAGTGCAG | 5920 fluorescence intensity (a.u.) |
| GCGCGCGCGCGCATTAGCGACACCCAGTATATAATCTGTACGGAGTCACCTAGTGCAG | 4010 fluorescence intensity (a.u.) |
| TGGGATGAAGGAAATATACTTAGTATTGTTTAGCAATTTTCGGAGTCACCTAGTGCAG | 28300 fluorescence intensity (a.u.) |
| CGGTGGAGATCCACCAATCAGAAGGCGCCACGTAGCCTTGCGGAGTCACCTAGTGCAG | 10300 fluorescence intensity (a.u.) |
| TATCGCATTATTTTATGGCGATGTCATAGAGGTACTGTTACGGAGTCACCTAGTGCAG | 3170 fluorescence intensity (a.u.) |
| GCGAGGGGCGGGGAGAGCAGCGGCGGCGGCGGAGCGCGGCCGGAGTCACCTAGTGCAG | 39200 fluorescence intensity (a.u.) |
| AAAATGTGAATCTTTTGTATAGCCAGCTTCTTCTAAAACACGGAGTCACCTAGTGCAG | 24900 fluorescence intensity (a.u.) |
| TTTTAATTTTGGTGTGAACCAACCACCACTGAAGACCTGTCGGAGTCACCTAGTGCAG | 23800 fluorescence intensity (a.u.) |
| GCGGTGGCGGTTGGGGTGGCGAGTGGGGAGGAGGAGGCGGCGGAGTCACCTAGTGCAG | 5880 fluorescence intensity (a.u.) |
| GGTGATCGCCGGGGTTCCTGATGTCGTTACCAACGCCGCGCGGAGTCACCTAGTGCAG | 3280 fluorescence intensity (a.u.) |
| TTAACACGGACACGCCACACTCTGACCACAGCTCACATTCCGGAGTCACCTAGTGCAG | 3630 fluorescence intensity (a.u.) |
| CATACCGGGTCGGATGCGGCCTCCGCGTCCGCGTCCGCGACGGAGTCACCTAGTGCAG | 3260 fluorescence intensity (a.u.) |
| GGTGCCCGGGCACCATGGTGCCCCATATGAGTGTCATATACGGAGTCACCTAGTGCAG | 3570 fluorescence intensity (a.u.) |
| GGAGAGACTCAGAGAGGAGGCGTGTTGGTTAGCTCATTGGCGGAGTCACCTAGTGCAG | 4190 fluorescence intensity (a.u.) |
| AGGGAATTTGAAGGAGGGGCCTGGAGGAGGAGGAGGAGGCCGGAGTCACCTAGTGCAG | 3420 fluorescence intensity (a.u.) |
| TGCACTTGCATATTTGCTGCGTGGCTTGCTGAGTATGTCACGGAGTCACCTAGTGCAG | 5020 fluorescence intensity (a.u.) |
| AGTGCGTGCAATAATAACTAGGATGTAGGAGTACTACTCACGGAGTCACCTAGTGCAG | 3240 fluorescence intensity (a.u.) |
| GTTCGAGGTGCTCGCCGCGTCAACCATCCCGAGGATGTACCGGAGTCACCTAGTGCAG | 3280 fluorescence intensity (a.u.) |
| CGACTTCGTTTTATGACACGTGGGCCCGCAGAAGGAGAACCGGAGTCACCTAGTGCAG | 9040 fluorescence intensity (a.u.) |
| TATTACAAATATTGTGAATAATTGCTCTTGTGCTAAGAGACGGAGTCACCTAGTGCAG | 32100 fluorescence intensity (a.u.) |
| ACGTGCGAGCTGCGTGGAGAGAGGATGATGTGTGAGGAAGCGGAGTCACCTAGTGCAG | 5910 fluorescence intensity (a.u.) |
| AGGGACAAGAGAGTACAGACAGTCAACTTGCGTGGCACAACGGAGTCACCTAGTGCAG | 4860 fluorescence intensity (a.u.) |
| ATGAGACTAATCTGATGTGTAAAACTGCTCACTTTCCGCTCGGAGTCACCTAGTGCAG | 5500 fluorescence intensity (a.u.) |
| CAAACCGTGATGGCACGCCACGTCAACGCTTTGACCGCCACGGAGTCACCTAGTGCAG | 25400 fluorescence intensity (a.u.) |
| CTCCACGTGACGCAACGCGATCCCTTCTCTTCCCCATTTGCGGAGTCACCTAGTGCAG | 5380 fluorescence intensity (a.u.) |

| Sequence | binding signal |
| --- | --- |
| CTCTCCTCGAGTCTCCTCTCCACCCTGGCAGTGTTATTGTCGGAGTCACCTAGTGCAG | 4900 fluorescence intensity (a.u.) |
| GGAGCTCTCAGACACCAACTTACCGTCGTTCCAAGCCTTGCGGAGTCACCTAGTGCAG | 3450 fluorescence intensity (a.u.) |
| TGTCAGTATGTGTGTGACGTCGCATGGCAGCTGTGTTTGCCGGAGTCACCTAGTGCAG | 4610 fluorescence intensity (a.u.) |
| ATATATGGGGAAATTCAATTCATTACACACCTCAAGGATTCGGAGTCACCTAGTGCAG | 3370 fluorescence intensity (a.u.) |
| GTGGATGTATATCCGTGTGGTCGTGGCGAATTTGTTCATTCGGAGTCACCTAGTGCAG | 3170 fluorescence intensity (a.u.) |
| GGAATGCAAGAGATTCAGAGAAACCTTACGCTTACGCGTGCGGAGTCACCTAGTGCAG | 3830 fluorescence intensity (a.u.) |
| TATATAGCCATAGCTGGCTGCAAGCCTATTGCTGCACCCTCGGAGTCACCTAGTGCAG | 3330 fluorescence intensity (a.u.) |
| AGGCTATTTCCCACGTTCCCGCCCCGTTGGCCAAATCTCTCGGAGTCACCTAGTGCAG | 4310 fluorescence intensity (a.u.) |
| TAGGATGTACATATGTGATGGGTGATGATGTAACTTAAATCGGAGTCACCTAGTGCAG | 4150 fluorescence intensity (a.u.) |
| CTCTGCACAAGCCCACCTGGCATGGCGATTCATGGTGTGTCGGAGTCACCTAGTGCAG | 3760 fluorescence intensity (a.u.) |
| TTGGCATCTGGTGTGTCATCGTAATCTTTATTTACTTGTCCGGAGTCACCTAGTGCAG | 5850 fluorescence intensity (a.u.) |
| GCCGACCAACTTTTGCCGGTCACGTGTACCAGAGAGAGGTCGGAGTCACCTAGTGCAG | 4590 fluorescence intensity (a.u.) |
| CTAAATCCAGTTTGATAGTGGAGTGTGCTGATGTCAAAGTCGGAGTCACCTAGTGCAG | 4270 fluorescence intensity (a.u.) |
| GCCAGATGCAAAGAGCGCTACTGTCAGATGTGAAGGGGAGCGGAGTCACCTAGTGCAG | 28200 fluorescence intensity (a.u.) |
| GGCGGCTCATCATCGGCTTTCATCGCCTCGCCTCTTCGTTCGGAGTCACCTAGTGCAG | 3320 fluorescence intensity (a.u.) |
| AGGTTGCAGCGCACGCGACGCGTCCCTCTCCGTGCTGCCGCGGAGTCACCTAGTGCAG | 3230 fluorescence intensity (a.u.) |
| GTCAAGTGCCTTCATTCCTTGAGTTTTGCTCGAAAAGAATCGGAGTCACCTAGTGCAG | 15500 fluorescence intensity (a.u.) |
| AGCACGCCACGTGGCCAGCTAGACATGCGAAATGTCCGTCCGGAGTCACCTAGTGCAG | 16400 fluorescence intensity (a.u.) |
| TGCAAATTGTGCTTTTCTATTCTGTTGTGTCTTCTGCTTTCGGAGTCACCTAGTGCAG | 40700 fluorescence intensity (a.u.) |
| GCTAACTCCGTGTGACCATGTTGCCTACGATTTCCCTGAACGGAGTCACCTAGTGCAG | 3860 fluorescence intensity (a.u.) |
| TATACAAGCTTGGCGTGTGCGTCACTCGCACCCAGCTTGCCGGAGTCACCTAGTGCAG | 5300 fluorescence intensity (a.u.) |
| TCTTCCCCATGATTATGTCAGAGCTATCAATGCACAGATGCGGAGTCACCTAGTGCAG | 3700 fluorescence intensity (a.u.) |
| ATTGTTTGGTTCCCACGTAAGTTGAGGCAGCCACACCACGCGGAGTCACCTAGTGCAG | 4420 fluorescence intensity (a.u.) |
| TGCACCACTCACCCTGCCACGCGCTATATATGGCCACCACCGGAGTCACCTAGTGCAG | 3850 fluorescence intensity (a.u.) |
| GATCGTTCTTATCTGATCCAATAATGACGCGCCAATCGCTCGGAGTCACCTAGTGCAG | 5720 fluorescence intensity (a.u.) |
| CTTCAGCTGGTTCACCTGTTCAGTGACACATAATATTTTCCGGAGTCACCTAGTGCAG | 3220 fluorescence intensity (a.u.) |
| ACACCAACAGTGTAGTTTTCTGATGTAGCCGCCGCCGTGGCGGAGTCACCTAGTGCAG | 4220 fluorescence intensity (a.u.) |

Five entries drawn at random from the list so far, as already listed:

| Sequence | binding signal |
| --- | --- |
| ATTGTTTGGTTCCCACGTAAGTTGAGGCAGCCACACCACGCGGAGTCACCTAGTGCAG | 4420 fluorescence intensity (a.u.) |
| ATATATGGGGAAATTCAATTCATTACACACCTCAAGGATTCGGAGTCACCTAGTGCAG | 3370 fluorescence intensity (a.u.) |
| TGCACCACTCACCCTGCCACGCGCTATATATGGCCACCACCGGAGTCACCTAGTGCAG | 3850 fluorescence intensity (a.u.) |
| TTGGCATCTGGTGTGTCATCGTAATCTTTATTTACTTGTCCGGAGTCACCTAGTGCAG | 5850 fluorescence intensity (a.u.) |
| TGTCAGTATGTGTGTGACGTCGCATGGCAGCTGTGTTTGCCGGAGTCACCTAGTGCAG | 4610 fluorescence intensity (a.u.) |

From publication PMC7819943, “Rice protein-binding microarrays: a tool to detect cis-acting elements near promoter regions in rice”
